Laboratory results reported in patent publication US20250213545A1 (AJOU UNIVERSITY INDUSTRY-ACADEMIC COOPERATION FOUNDATION, priority 2022, published 2025).

How the values were obtained:
TH-positive neurons = settings: 6-OHDA+fexofenadine group; 20 mg/kg orally once a day; 21 days after 6-OHDA injection
Method: Specifically, 8-week-old C57BL/6 mice (Daehan Biolink, Eumseong, North Chungcheong Province, Korea) were anesthetized by intraperitoneal (i.p.) injection of 200 mg/kg of 2,2,2-tribromoethanol (Sigma-Aldrich), and they were placed in a stereotaxic apparatus (David Kopf Instruments, Tujunga, CA, USA) equipped With a mouse adapter. Using a Hamilton syringe (Hamilton, Bonaduz, Switzerland), 2 μL of 6-OHDA-HCl solution (2 mg/mL) (Sigma Aldrich) in 0.02% ascorbic acid was injected into the right striatum at the following stereotactic coordinates (mm from the bregma): IP+1.0; ML-1.8; DV −3.2. The skin was sutured, and the animal was removed from the stereotaxic apparatus and placed on a heating pad for 30 minutes. Normal control mice for the diseased mouse model were injected with a vehicle (0.02% ascorbic acid) instead of 6-OHDA-HCl solution.
Behavioral experiments were performed 18 days after 6-01-IDA injection, and mice were sacrificed 21 days after 6-01-IDA injection, and histological analysis was performed.

IBA-1 positive cells = settings: PFF-fexofenadine group vs PFF-PBS; 20 mg/kg orally once a day; day 30
Method: The skin was sutured, and the animal was removed from the stereotaxic apparatus and placed on a heating pad for 30 minutes.

CC(C)(C(=O)O)c1ccc(C(O)CCCN2CCC(C(O)(c3ccccc3)c3ccccc3)CC2)cc1 (stereo not drawn) [fexofenadine]
density of TH-positive neurons in the striatum, ipsilateral compared to contralateral side, compared to the normal mouse control group (TH-positive neurons): ~80% | density of IBA-1 positive cells in the cortex and striatum, contralateral side (IBA-1 positive cells): decreased compared to the diseased mouse control group | density of IBA-1 positive cells in the cortex, striatum and substantia nigra, ipsilateral side (IBA-1 positive cells): significantly reduced
